Measurements reported in PubChem BioAssay AID1053208 (Peter MacCallum Cancer Centre, 2014).
Here is one part, drawn at random, of about 17,000 deposited reagents. 788 of all reagents (4.7%) count as active. 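Calls rest on z-score classes alone; an extra cut-off of viability at most 70% of control was not applied to them.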 Further read-outs or replicates are left out here.

- Assay: 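Find knock-downs that sensitise mouse osteosarcoma cells to doxorubicin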 (primary screen)
- System: mouse osteosarcoma cells, early-passage culture from an engineered mouse model of fibroblastic bone tumour
- Reagent: siRNA pool against mouse genes, 40 nM
- Time to read-out: about 120 h (48 h before drug, then 72 h with drug)
- Treatment: doxorubicin 100 nM for 72 h, roughly 30-40% inhibitory dose
- Read-out: 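Luminescent ATP signal taken as viability with or without 100 nM doxorubicin for 72 h; mean of two wells set against non-targeting siRNA and turned into robust z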
- Direction: viability z-score with doxorubicin: higher = more viable cells under doxorubicin; viability z-score without drug: higher = more viable cells with knock-down alone
- Active means: 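Called active if knock-down leaves viability unchanged without drug (z within -2 to 2) but lowers it with doxorubicin (z at or under -2)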

Target gene	combined z-score class	viability z-score with doxorubicin	viability z-score without drug	Call
Creb3l4	no change with or without drug	1.46	0.67	inactive
F2	no change with or without drug	-0.22	-0.51	inactive
Ints6	no change with or without drug	-0.45	-0.51	inactive
Srek1	no change with or without drug	-0.56	-1.52	inactive
Or4x6	no change with or without drug	-0.34	-1.69	inactive
Bcl10	no change with or without drug	0.56	-0.34	inactive
Cabp1	no change with or without drug	0	0.34	inactive
Flrt3	high cell count with doxorubicin only	2.02	1.52	inactive
Osr1	no change with or without drug	1.24	0.17	inactive
Ilf3	no change with or without drug	-0.45	-1.18	inactive
Treml4	no change with or without drug	0	0.67	inactive
Or6c75	no change with or without drug	-1.12	-1.85	inactive
Palmd	no change with or without drug	-1.12	0.84	inactive
Usp33	no change with or without drug	-0.22	0.34	inactive
Bcl2a1a	no change with or without drug	-1.57	-0.67	inactive
Timm21	no change with or without drug	-1.8	1.69	inactive
Alg11	no change with or without drug	0.45	0.34	inactive
Lrriq4	no change with or without drug	-1.12	-0.17	inactive
Hipk2	no change with or without drug	1.24	0.17	inactive
Tmprss3	no change with or without drug	-1.35	-0.17	inactive

Ordered by “viability z-score without drug” (highest first): some entries from above.
Target gene	combined z-score class	viability z-score with doxorubicin	viability z-score without drug	Call
Osr1	no change with or without drug	1.24	0.17	inactive
Ilf3	no change with or without drug	-0.45	-1.18	inactive
